The entries are a selection whose mix differs from that of the whole data set.

By UniProt entry, the sequences of proteins in these tests, tags left out. Where a name states a change or a piece, a line headed by the entry shows the natural chain unless it says otherwise.
UniProt Q9NW64: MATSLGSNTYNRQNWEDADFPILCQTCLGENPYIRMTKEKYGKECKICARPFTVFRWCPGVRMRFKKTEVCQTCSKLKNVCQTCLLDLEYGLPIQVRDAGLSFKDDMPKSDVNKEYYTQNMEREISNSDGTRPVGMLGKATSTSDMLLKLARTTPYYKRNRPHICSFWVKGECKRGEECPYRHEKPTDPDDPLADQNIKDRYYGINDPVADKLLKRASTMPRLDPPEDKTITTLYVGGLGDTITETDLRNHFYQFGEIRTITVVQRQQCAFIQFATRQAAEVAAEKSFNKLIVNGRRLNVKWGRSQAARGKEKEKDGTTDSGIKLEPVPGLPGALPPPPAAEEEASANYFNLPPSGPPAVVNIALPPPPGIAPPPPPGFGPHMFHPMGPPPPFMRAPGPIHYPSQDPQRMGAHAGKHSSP
UniProt Q9UGV2: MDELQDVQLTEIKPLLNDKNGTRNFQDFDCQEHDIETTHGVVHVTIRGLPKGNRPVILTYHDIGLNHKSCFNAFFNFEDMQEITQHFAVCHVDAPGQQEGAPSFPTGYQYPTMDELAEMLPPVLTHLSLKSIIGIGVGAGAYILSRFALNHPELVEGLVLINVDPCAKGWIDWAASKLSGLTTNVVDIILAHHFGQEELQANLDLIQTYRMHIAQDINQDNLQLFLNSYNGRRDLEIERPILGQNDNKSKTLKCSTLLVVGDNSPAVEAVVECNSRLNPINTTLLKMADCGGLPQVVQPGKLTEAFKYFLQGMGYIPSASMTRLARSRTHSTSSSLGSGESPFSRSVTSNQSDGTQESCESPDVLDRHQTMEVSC
UniProt Q9P2I0: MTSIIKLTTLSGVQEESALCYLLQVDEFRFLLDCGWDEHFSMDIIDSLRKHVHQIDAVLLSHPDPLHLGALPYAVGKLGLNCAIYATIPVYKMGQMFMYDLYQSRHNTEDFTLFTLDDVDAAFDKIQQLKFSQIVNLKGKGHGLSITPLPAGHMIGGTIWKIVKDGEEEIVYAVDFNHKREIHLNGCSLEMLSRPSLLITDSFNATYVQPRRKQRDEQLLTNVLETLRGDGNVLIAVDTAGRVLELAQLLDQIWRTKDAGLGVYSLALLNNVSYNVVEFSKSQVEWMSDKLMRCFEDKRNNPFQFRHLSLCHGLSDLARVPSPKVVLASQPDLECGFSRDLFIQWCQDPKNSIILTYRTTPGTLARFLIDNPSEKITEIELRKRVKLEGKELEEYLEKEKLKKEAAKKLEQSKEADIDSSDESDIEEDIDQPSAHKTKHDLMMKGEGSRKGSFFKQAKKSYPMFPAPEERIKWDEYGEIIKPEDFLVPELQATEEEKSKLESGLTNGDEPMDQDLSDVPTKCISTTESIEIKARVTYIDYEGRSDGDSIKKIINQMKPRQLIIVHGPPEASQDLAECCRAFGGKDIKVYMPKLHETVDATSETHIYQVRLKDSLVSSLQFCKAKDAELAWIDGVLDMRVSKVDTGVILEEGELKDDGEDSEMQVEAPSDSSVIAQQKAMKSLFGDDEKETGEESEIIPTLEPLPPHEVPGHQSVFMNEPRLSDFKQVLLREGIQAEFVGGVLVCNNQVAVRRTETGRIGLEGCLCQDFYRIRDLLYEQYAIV
UniProt Q9P253: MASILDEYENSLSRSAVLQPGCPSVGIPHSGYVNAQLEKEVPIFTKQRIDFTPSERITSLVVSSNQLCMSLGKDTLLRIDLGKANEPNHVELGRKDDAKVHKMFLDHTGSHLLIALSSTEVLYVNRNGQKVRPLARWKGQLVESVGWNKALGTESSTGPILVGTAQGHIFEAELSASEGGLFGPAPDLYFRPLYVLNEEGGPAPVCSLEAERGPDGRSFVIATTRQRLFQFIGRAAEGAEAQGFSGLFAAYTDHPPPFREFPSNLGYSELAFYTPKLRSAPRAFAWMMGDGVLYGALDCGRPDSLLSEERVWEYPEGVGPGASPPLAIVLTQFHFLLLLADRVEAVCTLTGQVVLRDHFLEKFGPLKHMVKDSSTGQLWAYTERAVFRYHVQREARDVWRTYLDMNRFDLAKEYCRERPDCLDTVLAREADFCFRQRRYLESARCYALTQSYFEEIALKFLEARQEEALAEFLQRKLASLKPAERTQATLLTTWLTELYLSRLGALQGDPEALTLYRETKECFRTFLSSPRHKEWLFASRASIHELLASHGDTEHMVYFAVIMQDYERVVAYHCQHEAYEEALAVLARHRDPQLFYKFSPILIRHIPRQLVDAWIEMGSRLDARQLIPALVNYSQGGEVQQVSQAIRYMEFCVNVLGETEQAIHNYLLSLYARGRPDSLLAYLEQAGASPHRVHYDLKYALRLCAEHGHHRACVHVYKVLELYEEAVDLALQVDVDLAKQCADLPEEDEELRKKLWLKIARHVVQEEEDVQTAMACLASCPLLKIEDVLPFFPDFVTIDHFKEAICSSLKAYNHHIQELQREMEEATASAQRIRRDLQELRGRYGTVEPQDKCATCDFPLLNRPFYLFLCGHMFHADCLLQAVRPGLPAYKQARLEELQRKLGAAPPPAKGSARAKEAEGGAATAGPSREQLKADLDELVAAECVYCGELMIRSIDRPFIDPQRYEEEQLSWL
UniProt Q9P275: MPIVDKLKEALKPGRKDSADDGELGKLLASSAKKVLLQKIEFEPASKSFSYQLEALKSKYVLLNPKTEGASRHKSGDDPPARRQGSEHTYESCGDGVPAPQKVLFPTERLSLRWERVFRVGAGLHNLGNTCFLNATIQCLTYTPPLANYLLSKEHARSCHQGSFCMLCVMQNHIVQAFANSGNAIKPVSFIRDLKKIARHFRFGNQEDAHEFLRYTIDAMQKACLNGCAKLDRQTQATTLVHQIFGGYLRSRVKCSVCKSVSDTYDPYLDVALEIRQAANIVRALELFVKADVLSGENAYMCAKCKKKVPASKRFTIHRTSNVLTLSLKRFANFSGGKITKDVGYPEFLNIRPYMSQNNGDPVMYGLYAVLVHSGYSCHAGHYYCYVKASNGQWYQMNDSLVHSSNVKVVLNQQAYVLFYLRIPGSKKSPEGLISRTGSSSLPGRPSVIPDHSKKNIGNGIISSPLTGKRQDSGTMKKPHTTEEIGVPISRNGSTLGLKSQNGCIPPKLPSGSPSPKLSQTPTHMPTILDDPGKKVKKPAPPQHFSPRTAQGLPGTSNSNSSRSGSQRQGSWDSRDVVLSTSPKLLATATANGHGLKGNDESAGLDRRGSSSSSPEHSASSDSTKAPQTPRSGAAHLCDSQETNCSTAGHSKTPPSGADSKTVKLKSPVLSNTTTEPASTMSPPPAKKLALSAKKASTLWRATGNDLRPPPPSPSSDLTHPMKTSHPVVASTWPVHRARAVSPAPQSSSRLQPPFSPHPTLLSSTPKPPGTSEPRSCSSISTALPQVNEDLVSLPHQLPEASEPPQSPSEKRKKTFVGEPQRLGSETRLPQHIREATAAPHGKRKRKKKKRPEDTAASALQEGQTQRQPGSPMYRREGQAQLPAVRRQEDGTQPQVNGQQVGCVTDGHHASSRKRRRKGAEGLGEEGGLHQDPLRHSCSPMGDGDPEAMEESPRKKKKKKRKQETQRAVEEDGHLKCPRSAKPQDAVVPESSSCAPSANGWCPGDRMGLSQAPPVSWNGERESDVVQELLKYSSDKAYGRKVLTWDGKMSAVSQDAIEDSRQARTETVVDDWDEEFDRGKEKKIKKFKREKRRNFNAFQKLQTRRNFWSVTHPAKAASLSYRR
UniProt Q9P289: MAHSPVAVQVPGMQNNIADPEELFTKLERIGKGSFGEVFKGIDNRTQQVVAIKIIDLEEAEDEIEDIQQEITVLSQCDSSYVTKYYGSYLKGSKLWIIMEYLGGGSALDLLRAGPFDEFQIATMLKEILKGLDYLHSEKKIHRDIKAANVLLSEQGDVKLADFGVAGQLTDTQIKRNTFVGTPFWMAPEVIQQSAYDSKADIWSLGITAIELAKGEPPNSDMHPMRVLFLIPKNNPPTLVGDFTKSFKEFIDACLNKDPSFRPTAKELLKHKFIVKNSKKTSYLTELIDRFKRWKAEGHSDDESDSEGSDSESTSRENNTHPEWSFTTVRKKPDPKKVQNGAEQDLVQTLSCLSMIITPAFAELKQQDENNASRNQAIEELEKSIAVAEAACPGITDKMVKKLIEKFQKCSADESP
UniProt Q9UGR2: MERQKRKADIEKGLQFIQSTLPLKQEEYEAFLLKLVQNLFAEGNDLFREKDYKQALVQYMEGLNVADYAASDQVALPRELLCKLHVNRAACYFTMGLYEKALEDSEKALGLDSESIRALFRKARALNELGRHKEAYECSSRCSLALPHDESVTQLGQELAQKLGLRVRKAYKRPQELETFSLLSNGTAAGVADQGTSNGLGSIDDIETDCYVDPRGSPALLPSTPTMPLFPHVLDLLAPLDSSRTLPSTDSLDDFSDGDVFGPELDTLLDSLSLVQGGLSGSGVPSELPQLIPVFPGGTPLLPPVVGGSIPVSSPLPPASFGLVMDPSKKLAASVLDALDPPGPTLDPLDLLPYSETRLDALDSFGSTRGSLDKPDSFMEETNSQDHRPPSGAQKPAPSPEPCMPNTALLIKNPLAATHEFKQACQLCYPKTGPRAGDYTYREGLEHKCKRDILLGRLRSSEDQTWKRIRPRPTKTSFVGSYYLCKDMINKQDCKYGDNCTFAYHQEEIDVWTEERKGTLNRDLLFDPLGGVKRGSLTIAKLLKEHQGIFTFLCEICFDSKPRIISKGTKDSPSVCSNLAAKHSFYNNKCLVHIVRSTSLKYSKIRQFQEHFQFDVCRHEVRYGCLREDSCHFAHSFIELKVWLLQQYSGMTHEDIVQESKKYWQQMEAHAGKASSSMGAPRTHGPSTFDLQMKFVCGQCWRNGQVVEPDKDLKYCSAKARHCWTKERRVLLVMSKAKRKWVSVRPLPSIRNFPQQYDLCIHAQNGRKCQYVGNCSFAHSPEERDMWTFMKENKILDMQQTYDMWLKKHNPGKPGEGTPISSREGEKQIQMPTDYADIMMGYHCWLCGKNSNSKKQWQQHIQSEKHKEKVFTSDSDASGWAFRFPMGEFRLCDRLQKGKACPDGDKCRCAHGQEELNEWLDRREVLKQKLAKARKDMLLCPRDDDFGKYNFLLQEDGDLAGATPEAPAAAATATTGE
UniProt Q9P260: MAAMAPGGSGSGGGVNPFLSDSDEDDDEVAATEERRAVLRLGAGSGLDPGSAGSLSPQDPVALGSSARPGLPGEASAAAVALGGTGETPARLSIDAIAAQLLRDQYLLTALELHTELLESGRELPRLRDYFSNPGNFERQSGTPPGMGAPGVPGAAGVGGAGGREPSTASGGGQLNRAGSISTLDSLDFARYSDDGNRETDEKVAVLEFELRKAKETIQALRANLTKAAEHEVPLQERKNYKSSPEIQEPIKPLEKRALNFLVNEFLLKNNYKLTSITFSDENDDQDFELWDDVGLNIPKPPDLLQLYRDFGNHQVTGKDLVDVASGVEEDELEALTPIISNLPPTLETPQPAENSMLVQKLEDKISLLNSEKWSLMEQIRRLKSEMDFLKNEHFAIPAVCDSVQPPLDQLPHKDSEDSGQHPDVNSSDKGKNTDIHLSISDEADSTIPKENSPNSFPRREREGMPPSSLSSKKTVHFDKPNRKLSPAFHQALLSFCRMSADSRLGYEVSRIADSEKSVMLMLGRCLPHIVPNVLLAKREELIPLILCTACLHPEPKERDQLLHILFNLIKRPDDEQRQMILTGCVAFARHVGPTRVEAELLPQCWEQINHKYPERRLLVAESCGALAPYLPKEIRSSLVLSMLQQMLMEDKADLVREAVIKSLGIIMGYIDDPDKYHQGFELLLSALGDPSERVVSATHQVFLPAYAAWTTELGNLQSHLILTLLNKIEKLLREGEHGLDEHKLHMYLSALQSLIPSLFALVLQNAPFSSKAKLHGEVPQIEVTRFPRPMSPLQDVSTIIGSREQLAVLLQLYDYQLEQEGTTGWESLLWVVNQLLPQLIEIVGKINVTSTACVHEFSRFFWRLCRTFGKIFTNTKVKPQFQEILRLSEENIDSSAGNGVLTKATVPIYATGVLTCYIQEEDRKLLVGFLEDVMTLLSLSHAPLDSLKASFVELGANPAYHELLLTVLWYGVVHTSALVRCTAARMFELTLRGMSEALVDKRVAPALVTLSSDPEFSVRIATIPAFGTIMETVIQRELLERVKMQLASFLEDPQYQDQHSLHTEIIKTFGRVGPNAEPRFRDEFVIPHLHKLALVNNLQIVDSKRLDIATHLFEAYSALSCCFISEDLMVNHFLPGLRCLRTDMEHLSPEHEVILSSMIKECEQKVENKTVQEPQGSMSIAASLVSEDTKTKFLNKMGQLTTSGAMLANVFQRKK
UniProt Q9UFW8: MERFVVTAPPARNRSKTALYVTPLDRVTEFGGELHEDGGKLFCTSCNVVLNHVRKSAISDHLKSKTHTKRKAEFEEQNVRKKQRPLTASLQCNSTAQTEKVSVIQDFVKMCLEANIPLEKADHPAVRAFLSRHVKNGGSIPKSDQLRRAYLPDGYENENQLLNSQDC

Compound in the test: COC(=O)C#Cc1ccccc1 [methyl 3-phenylpropiolate]
Briefly: log2 ratio of iodoacetamide-alkyne labeling of the cysteine site, DMSO over compound (competition); higher = stronger covalent engagement of the cysteine by the compound, active = 1 or more. The settings on record: 500 µM; treatment time 1 h; system: HEK293T cell lysate. An outline of the steps: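 Electrophile (500 µM) or vehicle was added to HEK293T lysate (2 mg/mL) for 1 h at ambient temperature before iodoacetamide alkyne labelling (1 h) and click coupling to sCIP-TMT reagents. After pooling, overnight trypsin digestion at 37 °C, streptavidin enrichment and acid elution, peptides were measured by Orbitrap Eclipse LC-MS/MS with FAIMS and quantified in FragPipe. Each cysteine's log2 competition ratio compares mean control-channel with mean compound-channel reporter intensity, control over compound. Data came from duplicate channels across three replicates, excluding cysteines quantified in only one replicate.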
Turning to VAPA C60 (UniProt Q9P0L0), the “log2 ratio of iodoacetamide-alkyne labeling” value (from here on “log2 ratio”) is inactive: 0.173.

Take UniProt Q9NUQ3_C480: the “log2 ratio” value was inactive: 0.639.

On to UniProt Q9UBS0_C348, for which the “log2 ratio” value is inactive: 0.331.

Regarding LIMD1 C401 (UniProt Q9UGP4), the “log2 ratio” value was inactive: 0.204.

With STK39 C450 (UniProt Q9UEW8), the “log2 ratio” value is inactive: 0.0249.

On to SACS C3756 (UniProt Q9NZJ4), for which the “log2 ratio” value was inactive: 0.593.

UniProt Q9NV64_C29: the “log2 ratio” value was active: 1.11.

Regarding CCDC88C C1520 (UniProt Q9P219), the “log2 ratio” value is active: 1.15.

In the case of UniProt Q9UBD5_C621, the “log2 ratio” value was inactive: 0.166.

For MAT2B C58 (UniProt Q9NZL9), the “log2 ratio” value is inactive: 0.162.

As to UniProt Q9NW64_C48, the “log2 ratio” value is inactive: 0.105.

With NDRG3 C290 (UniProt Q9UGV2), the “log2 ratio” value is inactive: -0.105.

Consider NCDN C98 (UniProt Q9UBB6), for which the “log2 ratio” value was inactive: 0.32.

As for CPSF2 C621 (UniProt Q9P2I0), the “log2 ratio” value was inactive: 0.241.

As for CPSF2 C763 (UniProt Q9P2I0), the “log2 ratio” value was inactive: -0.0874.

As for UniProt Q9NYV4_C1039, the “log2 ratio” value was inactive: 0.794.

Take ABCF3 C4 (UniProt Q9NUQ8): the “log2 ratio” value is inactive: 0.14.

Regarding VPS18 C445 (UniProt Q9P253), the “log2 ratio” value was inactive: -0.049.

As for USP36 C977 (UniProt Q9P275), the “log2 ratio” value was inactive: 0.897.

In the case of SMPD4 C698 (UniProt Q9NXE4), the “log2 ratio” value is inactive: 0.247.

With UBAP1 C45 (UniProt Q9NZ09), the “log2 ratio” value was inactive: 0.273.

For the target GMPR2 C348 (UniProt Q9P2T1), the “log2 ratio” value was inactive: 0.0583.

For PPP4R2 C134 (UniProt Q9NY27), the “log2 ratio” value was inactive: 0.137.

Take TMOD3 C150 (UniProt Q9NYL9): the “log2 ratio” value is inactive: 0.855.

Take MTCH1 C385 (UniProt Q9NZJ7): the “log2 ratio” value was inactive: 0.266.

UniProt Q9P289_C352: the “log2 ratio” value is inactive: 0.0559.

On to ADPRHL2 C287 (UniProt Q9NX46), for which the “log2 ratio” value is inactive: 0.184.

For the target ATXN10 C354 (UniProt Q9UBB4), the “log2 ratio” value is active: 1.32.

With CPSF2 C765 (UniProt Q9P2I0), the “log2 ratio” value is active: 1.01.

As to ZC3H7B C925 (UniProt Q9UGR2), the “log2 ratio” value is inactive: -0.0926.

For ATXN10 C165 (UniProt Q9UBB4), the “log2 ratio” value was inactive: 0.194.

CTSZ C92 (UniProt Q9UBR2): the “log2 ratio” value was inactive: -0.349.

Turning to UniProt Q9P260_C624, the “log2 ratio” value was inactive: 0.299.

For TMEM30A C17 (UniProt Q9NV96), the “log2 ratio” value was inactive: 0.217.

With SDAD1 C87 (UniProt Q9NVU7), the “log2 ratio” value was inactive: 0.16.

Regarding NXF1 C252 (UniProt Q9UBU9), the “log2 ratio” value was inactive: 0.0876.

CGGBP1 C167 (UniProt Q9UFW8): the “log2 ratio” value was inactive: 0.0581.

The values are drawn from the supplement of paper PMC11006884.
